Consider two substances from PMC12436625.

The chains behind the UniProt entries cited, without tags or fusion partners.
UniProt P15337: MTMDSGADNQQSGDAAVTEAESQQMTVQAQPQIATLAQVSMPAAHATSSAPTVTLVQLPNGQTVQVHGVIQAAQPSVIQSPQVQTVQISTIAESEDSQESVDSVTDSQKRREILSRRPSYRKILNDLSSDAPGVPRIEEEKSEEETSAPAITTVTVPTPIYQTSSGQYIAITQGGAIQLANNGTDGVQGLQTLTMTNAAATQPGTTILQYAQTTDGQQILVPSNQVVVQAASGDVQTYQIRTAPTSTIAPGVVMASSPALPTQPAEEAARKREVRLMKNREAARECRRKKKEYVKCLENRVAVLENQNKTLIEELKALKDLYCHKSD
UniProt Q8CHI5: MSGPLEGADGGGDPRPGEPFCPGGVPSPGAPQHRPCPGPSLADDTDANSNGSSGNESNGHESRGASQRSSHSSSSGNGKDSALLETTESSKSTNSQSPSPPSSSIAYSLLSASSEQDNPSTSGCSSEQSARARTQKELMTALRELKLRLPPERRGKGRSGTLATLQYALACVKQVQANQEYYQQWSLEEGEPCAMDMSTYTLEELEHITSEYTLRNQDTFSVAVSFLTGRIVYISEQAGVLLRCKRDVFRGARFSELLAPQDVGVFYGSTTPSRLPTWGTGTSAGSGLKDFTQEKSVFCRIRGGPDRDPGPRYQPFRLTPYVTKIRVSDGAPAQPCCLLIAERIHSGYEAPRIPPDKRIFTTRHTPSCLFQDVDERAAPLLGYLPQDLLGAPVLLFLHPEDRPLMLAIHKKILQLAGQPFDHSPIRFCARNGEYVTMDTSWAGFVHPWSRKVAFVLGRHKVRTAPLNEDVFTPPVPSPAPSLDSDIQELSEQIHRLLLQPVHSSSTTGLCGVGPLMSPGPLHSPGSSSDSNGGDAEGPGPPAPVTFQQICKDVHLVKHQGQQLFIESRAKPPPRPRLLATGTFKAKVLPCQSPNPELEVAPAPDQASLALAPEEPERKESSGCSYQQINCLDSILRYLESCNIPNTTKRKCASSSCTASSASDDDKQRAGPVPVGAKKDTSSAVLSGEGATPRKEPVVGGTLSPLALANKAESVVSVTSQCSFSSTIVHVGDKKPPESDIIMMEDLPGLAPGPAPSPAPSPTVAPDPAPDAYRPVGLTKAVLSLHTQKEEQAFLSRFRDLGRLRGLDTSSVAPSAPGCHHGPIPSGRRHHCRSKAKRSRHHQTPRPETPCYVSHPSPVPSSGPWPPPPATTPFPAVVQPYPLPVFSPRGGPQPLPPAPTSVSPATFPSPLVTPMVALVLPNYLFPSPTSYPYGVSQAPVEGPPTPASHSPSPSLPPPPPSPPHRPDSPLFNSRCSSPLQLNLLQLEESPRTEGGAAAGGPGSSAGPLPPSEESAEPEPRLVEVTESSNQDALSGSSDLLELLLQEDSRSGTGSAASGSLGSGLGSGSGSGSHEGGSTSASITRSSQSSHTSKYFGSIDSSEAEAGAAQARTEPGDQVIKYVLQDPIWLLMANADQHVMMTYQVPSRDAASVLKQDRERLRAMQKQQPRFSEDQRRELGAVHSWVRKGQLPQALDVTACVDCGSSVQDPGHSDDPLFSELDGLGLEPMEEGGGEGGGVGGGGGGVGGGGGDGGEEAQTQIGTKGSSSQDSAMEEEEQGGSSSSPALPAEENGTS
UniProt Q9Z301: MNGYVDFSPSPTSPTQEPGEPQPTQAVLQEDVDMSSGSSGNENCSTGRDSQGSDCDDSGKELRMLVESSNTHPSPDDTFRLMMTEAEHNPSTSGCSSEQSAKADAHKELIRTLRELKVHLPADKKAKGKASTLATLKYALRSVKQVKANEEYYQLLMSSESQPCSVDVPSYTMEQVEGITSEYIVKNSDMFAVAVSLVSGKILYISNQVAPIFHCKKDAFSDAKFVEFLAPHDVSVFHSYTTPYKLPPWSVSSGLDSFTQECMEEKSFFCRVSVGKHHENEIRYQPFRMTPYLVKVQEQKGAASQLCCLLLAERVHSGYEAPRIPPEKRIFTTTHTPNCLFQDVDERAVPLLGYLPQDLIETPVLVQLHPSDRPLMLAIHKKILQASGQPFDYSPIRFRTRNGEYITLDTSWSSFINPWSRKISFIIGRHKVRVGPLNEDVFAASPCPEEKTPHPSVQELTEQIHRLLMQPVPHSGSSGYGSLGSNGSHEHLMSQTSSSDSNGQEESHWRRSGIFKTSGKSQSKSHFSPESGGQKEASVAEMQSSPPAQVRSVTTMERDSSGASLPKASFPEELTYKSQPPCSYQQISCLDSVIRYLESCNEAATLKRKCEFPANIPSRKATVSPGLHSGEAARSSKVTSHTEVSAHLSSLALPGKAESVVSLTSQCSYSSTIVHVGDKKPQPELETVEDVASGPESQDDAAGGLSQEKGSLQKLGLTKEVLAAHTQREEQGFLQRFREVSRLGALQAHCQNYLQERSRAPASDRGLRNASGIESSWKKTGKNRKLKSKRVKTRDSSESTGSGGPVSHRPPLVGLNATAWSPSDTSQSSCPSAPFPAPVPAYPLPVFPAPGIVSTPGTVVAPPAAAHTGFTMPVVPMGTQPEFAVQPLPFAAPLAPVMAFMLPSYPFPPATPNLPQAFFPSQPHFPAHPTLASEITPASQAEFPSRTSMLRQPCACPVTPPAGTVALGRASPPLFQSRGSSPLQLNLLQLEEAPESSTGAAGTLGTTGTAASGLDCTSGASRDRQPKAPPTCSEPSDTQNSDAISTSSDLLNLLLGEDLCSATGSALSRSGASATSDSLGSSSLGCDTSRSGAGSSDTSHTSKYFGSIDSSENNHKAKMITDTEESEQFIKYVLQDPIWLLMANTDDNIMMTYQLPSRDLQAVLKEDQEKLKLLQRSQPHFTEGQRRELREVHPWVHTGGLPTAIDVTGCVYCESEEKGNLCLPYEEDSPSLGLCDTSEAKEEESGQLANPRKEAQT

These are yes or no findings as the source states them, for the method shown. In cells and extracts the contact can be indirect. Some entries that bind do so weakly or less than the wild type.

The target in the test is cyclic AMP-responsive element-binding protein (CREB) (rat (endogenous in hippocampal CA1 tissue)) (UniProt P15337). The experiment in a line: co-IP; lysates of the hippocampal CA1 region of normal adult rats, extracted at ZT02; buffer 50 mM Tris-HCl pH 8.0, 150 mM NaCl, 5 mM EDTA, 0.5% NP-40; pre-cleared with protein A/G-agarose; antibodies against PER1, PER2, CREB or IgG as a control, 4 °C overnight; immunoblot. A general note: In western blotting, separated proteins are transferred to a membrane and probed.

For PER1 (from UniProt Q8CHI5 1-1293), the binding entry was “binds”.

With “Period (PER)2 (from UniProt Q9Z301 1-1257)”, the binding result is recorded as “binds”.
